# Data from patent US20170258835A1.
# Protein sequences, listed by entry. Tags and fused reporters are not part of them. Lines headed by an entry give the natural chain unless they say otherwise; changes in a name come on top.
# UniProt P26842: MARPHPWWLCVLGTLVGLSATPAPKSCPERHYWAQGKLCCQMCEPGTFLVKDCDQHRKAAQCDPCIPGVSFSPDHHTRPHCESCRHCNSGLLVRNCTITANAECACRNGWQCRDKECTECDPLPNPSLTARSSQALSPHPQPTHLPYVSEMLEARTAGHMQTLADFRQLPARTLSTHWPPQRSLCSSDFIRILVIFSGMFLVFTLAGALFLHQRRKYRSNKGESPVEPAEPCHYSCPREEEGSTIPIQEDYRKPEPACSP
# Results are given in words; binding and its absence hold for the method and conditions named. Some entries that bind do so weakly or less than the wild type.
# Assays:
# CD27-Z CLEAR [1] = biological target: CD27-Z CLEAR (UniProt P26842); experiment: flow cytometry, anti-mouse IgG Fab against anti-CD27 on co-electroporated T cells
# CD27-Z CLEAR [2] = biological target: CD27-Z CLEAR (UniProt P26842); experiment: flow cytometry, surface staining for CD27 and mIgG Fab on co-electroporated T cells
binding (CD27-Z CLEAR [1]),binding (CD27-Z CLEAR [2]),Binder
binds,binds,M709.CD19 bi-specific antibody (bispecific antibody) DIVMTQSPDSLAVSLGERATINCKASQSVDYAGESFMNWYQQKPGQPPKLLIYAASNLESGVPDRFSGSGSGTDFTLTISSLQAEDVAVYYCQQSNEDPYTFGQGTKLEIKGGGGSGGGGSGGGGSEVQLVQSGAEVKKPGESLKISCKGSGYAFSSSWMNWVRQMPGKGLEWMGRIYAGDADTAYSPSFQGQVTISADKSISTAYLQWSSLKASDTAMYYCARSDYYGDYGFAYWGQGTLVTVSSGGGGSDIQMTQTTSSLSASLGDRVTISCRASQDISKYLNWYQQKPDGTVKLLIYHTSRLHSGVPSRFSGSGSGTDYSLTISNLEQEDIATYFCQQGNTLPYTFGGGTKLEITGGGGSGGGGSGGGGSEVKLQESGPGLVAPSQSLSVTCTVSGVSLPDYGVSWIRQPPRKGLEWLGVIWGSETTYYNSALKSRLTIIKDNSKSQVFLKMNSLQTDDTAIYYCAKHYYYGGSYAMDYWGQGTSVTVSS
,binds,M708.CD19 bi-specific antibody (bispecific antibody) DIQMTQSPSSLSASVGDRVTITCRASKSVSTSGYSFMHWYQQKPGKAPKLLIYVGSRLDYGVPSRFSGSGSGTDFTLTISSLQPEDFATYYCQHSRELPWTFGQGTKVEIKGGGGSGGGGSGGGGSEVQLLESGGGLVQPGGSLRLSCAASGFTFSSYTMSWVRQAPGKGLEWVSVIDHGGGSTHYPDSVKGRFTISRDNSKNTLYLQMNSLRAEDTAVYYCARHRGNPFDYWGQGTLVTVSSGGGGSDIQMTQTTSSLSASLGDRVTISCRASQDISKYLNWYQQKPDGTVKLLIYHTSRLHSGVPSRFSGSGSGTDYSLTISNLEQEDIATYFCQQGNTLPYTFGGGTKLEITGGGGSGGGGSGGGGSEVKLQESGPGLVAPSQSLSVTCTVSGVSLPDYGVSWIRQPPRKGLEWLGVIWGSETTYYNSALKSRLTIIKDNSKSQVFLKMNSLQTDDTAIYYCAKHYYYGGSYAMDYWGQGTSVTVSS
